{"sequences": {"note": "The chains behind the UniProt entries cited, without tags or fusion partners.", "UniProt Q0JBA9, entry or part of it": "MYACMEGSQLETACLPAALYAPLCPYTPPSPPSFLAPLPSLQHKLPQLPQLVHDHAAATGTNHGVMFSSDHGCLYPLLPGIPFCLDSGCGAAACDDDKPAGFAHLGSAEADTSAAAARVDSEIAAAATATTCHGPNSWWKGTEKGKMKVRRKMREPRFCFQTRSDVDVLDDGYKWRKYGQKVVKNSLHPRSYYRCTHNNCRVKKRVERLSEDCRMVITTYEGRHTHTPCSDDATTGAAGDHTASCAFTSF"}, "source": "paper PMC7819943", "about": "“Rice protein-binding microarrays: a tool to detect cis-acting elements near promoter regions in rice”", "note": "The list shows a part of the results."}
{"biological_target": "OsWRKY34 (Oryza sativa, UniProt Q0JBA9 1-250)", "assay": "protein-binding microarray (RPBM); PBS, 2% BSA, 51.3 ng/ul salmon testes DNA, 50 uM zinc acetate, 200 nM TF, 25 C, 1 h; high values mean tight binding", "details": "protein: recombinant; tags: N-terminal polyhistidine and DsRed monomer fusion (pET32a); label: CyDye5-dUTP incorporated in the synthesized complementary strand; 3' TTTTT single-stranded linker to array surface; dsDNA, one strand shown", "method_in_brief": "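Binding signal is defined as the fluorescence intensity of each feature in arbitrary units, read on an Axon 4000B scanner. Transcription factors with N-terminal polyhistidine and DsRed fusions came from E. coli BL21-CodonPlus and were purified on Ni–NTA. They were incubated at 200 nM for 1 h at 25 °C on a custom Agilent array that had been made double-stranded with Cy5-dUTP, with 50 µM zinc acetate present, and the array was washed.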"}
{"sequence": "TCCCTTCTCTCTCTATGTTTCTCTTCCTCTCCACTTCGGTCGGAGTCACCTAGTGCAG", "binding signal": "8080 fluorescence intensity (a.u.)"}
{"sequence": "GGGCGGGTGATCGCTGGGCGGGTGGGTGAGCGATCACCCACGGAGTCACCTAGTGCAG", "binding signal": "14800 fluorescence intensity (a.u.)"}
{"sequence": "TTTTTCCCCTTTCTTTTTTCATTTATTTTTTCAAAATTGACGGAGTCACCTAGTGCAG", "binding signal": "8390 fluorescence intensity (a.u.)"}
{"sequence": "ACCATTGTTTCTTCTCCAACTCTCTCCCTGGCGGCTGCCTCGGAGTCACCTAGTGCAG", "binding signal": "8220 fluorescence intensity (a.u.)"}
{"sequence": "TTCTTCTTCTTCTTCCAGTGCTCGGCTCTCTCTTTTACTCCGGAGTCACCTAGTGCAG", "binding signal": "8530 fluorescence intensity (a.u.)"}
{"sequence": "GACCAGGCTGTTTACCTTCGGTGCACACGATAGCGCTTGGCGGAGTCACCTAGTGCAG", "binding signal": "8070 fluorescence intensity (a.u.)"}
{"sequence": "CGCATTTTTCTAACCGTTGAACGATATGTTTTTTAAATATCGGAGTCACCTAGTGCAG", "binding signal": "8550 fluorescence intensity (a.u.)"}
{"sequence": "TCCTAGCATGTGTTTAGATTGGCCCAAAGTTTAGAATTTGCGGAGTCACCTAGTGCAG", "binding signal": "8830 fluorescence intensity (a.u.)"}
{"sequence": "CGCCCACACACACCCACACACGTCCCTCCAGATCTCGCACCGGAGTCACCTAGTGCAG", "binding signal": "8200 fluorescence intensity (a.u.)"}
{"sequence": "GCAAACCGCGCGGTTTGGCGCGGTTACCGCGCGGTTTGACCGGAGTCACCTAGTGCAG", "binding signal": "8060 fluorescence intensity (a.u.)"}
{"sequence": "CAAACATACACTCAGCCTTAATCCTTGCATTACTTCTCTACGGAGTCACCTAGTGCAG", "binding signal": "11900 fluorescence intensity (a.u.)"}
{"sequence": "ACCGCCTCCGCTCACCGGCATGCGCGCGCCGGCCTACGTGCGGAGTCACCTAGTGCAG", "binding signal": "8660 fluorescence intensity (a.u.)"}
{"sequence": "TTTGCAGTTTTTTACACTTGCTGGGAGCCCTGAGAATAGCCGGAGTCACCTAGTGCAG", "binding signal": "8230 fluorescence intensity (a.u.)"}
{"sequence": "CCTCGGCCTATAGTGTTGGGTTTGGGTGTTGGTTTTTCCCCGGAGTCACCTAGTGCAG", "binding signal": "15600 fluorescence intensity (a.u.)"}
{"sequence": "CTCCCCATTCTTCTCCTGTCTCTCTCGCCGCCTCCAATTCCGGAGTCACCTAGTGCAG", "binding signal": "11200 fluorescence intensity (a.u.)"}
{"sequence": "TCGCGTTACTGCTGTTCGTGCTGGTGGTGGCGGCGGCGGCCGGAGTCACCTAGTGCAG", "binding signal": "8650 fluorescence intensity (a.u.)"}
{"sequence": "GGGAGGGAGGGGCTCGCTGTCTCATCACTCTGTAACCGATCGGAGTCACCTAGTGCAG", "binding signal": "12300 fluorescence intensity (a.u.)"}
{"sequence": "CTCTCTCTCTCTCTCTCTCTTTCCTTTCTTTCCCTGCTAACGGAGTCACCTAGTGCAG", "binding signal": "8500 fluorescence intensity (a.u.)"}
{"sequence": "TTCTTCCTCCGTCAGTTCATCATCTCTCTGTGTGTGTTTTCGGAGTCACCTAGTGCAG", "binding signal": "11400 fluorescence intensity (a.u.)"}
{"sequence": "AATCTATCCCAGCCTAAATCTCACTGTTTCATGCACAACTCGGAGTCACCTAGTGCAG", "binding signal": "8350 fluorescence intensity (a.u.)"}
{"sequence": "GATTATCACATTTTATATTGTATATCCTGCTTCTTTTTTTCGGAGTCACCTAGTGCAG", "binding signal": "14000 fluorescence intensity (a.u.)"}
{"sequence": "ACCTTTCGTCTATGATATCATATCTGGTCTCACTTTAGCACGGAGTCACCTAGTGCAG", "binding signal": "9870 fluorescence intensity (a.u.)"}
{"sequence": "CTCTCTCTCCGTTTTTCTTCTCTTCCTACTAAACCCCTCACGGAGTCACCTAGTGCAG", "binding signal": "9520 fluorescence intensity (a.u.)"}
{"sequence": "ATCGTTAAGCCTCAGTTTTTTTTTTTTTGGCACGAAGCTCCGGAGTCACCTAGTGCAG", "binding signal": "8330 fluorescence intensity (a.u.)"}
{"sequence": "TGGGCTCTCGCTTGCTCTTGTGTTCTTCCTTTTCCCTACGCGGAGTCACCTAGTGCAG", "binding signal": "13200 fluorescence intensity (a.u.)"}
{"sequence": "AAATTTAAAGTAATTTGACTTTGAAAGTCAAAACTTGTAACGGAGTCACCTAGTGCAG", "binding signal": "8600 fluorescence intensity (a.u.)"}
{"sequence": "CTCACCGCGCCGCTCACCTCCTCAAGACCACCACCCACCACGGAGTCACCTAGTGCAG", "binding signal": "9730 fluorescence intensity (a.u.)"}
{"sequence": "TTTTCTGGTTTATGGGGTAATTCGGATGACCGCGATAGTTCGGAGTCACCTAGTGCAG", "binding signal": "8030 fluorescence intensity (a.u.)"}
{"sequence": "ATTCCCATTGTCATGCTGCCACTAATCTGATTGTGTCACTCGGAGTCACCTAGTGCAG", "binding signal": "10600 fluorescence intensity (a.u.)"}
{"sequence": "CCCTCCTTCTCACTTTTCTTCCTCTCGGGCGCCTCTCCTCCGGAGTCACCTAGTGCAG", "binding signal": "10700 fluorescence intensity (a.u.)"}
{"sequence": "CACAGCCACCAGTACTGCCTATATATACACGCTCTCTCCACGGAGTCACCTAGTGCAG", "binding signal": "8560 fluorescence intensity (a.u.)"}
{"sequence": "ACATTTCTTTTCTCATTTAATTTTATCTACTTTTTTAATCCGGAGTCACCTAGTGCAG", "binding signal": "8050 fluorescence intensity (a.u.)"}
{"sequence": "CCGATTTTTCACCTTTGTCCCATTCCCACACCGCTCCGTGCGGAGTCACCTAGTGCAG", "binding signal": "10400 fluorescence intensity (a.u.)"}
{"sequence": "AAACCGGTCACTTTAGGTCCTTCGGTAGTTTTGACCCCGGCGGAGTCACCTAGTGCAG", "binding signal": "8580 fluorescence intensity (a.u.)"}
{"sequence": "ATTAATCCATCGTCAATCGCGTGGGAACCAGCAAGCTTTCCGGAGTCACCTAGTGCAG", "binding signal": "8080 fluorescence intensity (a.u.)"}
{"sequence": "ATGCTGCTACTACTACTGCTCTCTCACTCTCGTGCATGCACGGAGTCACCTAGTGCAG", "binding signal": "12600 fluorescence intensity (a.u.)"}
{"sequence": "ATTCCACGCGCATTCTCGGCCGATTAGCCCCGCCATGTGGCGGAGTCACCTAGTGCAG", "binding signal": "8320 fluorescence intensity (a.u.)"}
{"sequence": "GATAGTTTCTCGCTACTCGCTCCCGCCAAGCTAAGTTAGCCGGAGTCACCTAGTGCAG", "binding signal": "8220 fluorescence intensity (a.u.)"}
{"sequence": "CCTTGGCCCCGACGAGCAGCACCTCCAGCGTCCCGTGCACCGGAGTCACCTAGTGCAG", "binding signal": "8340 fluorescence intensity (a.u.)"}
{"sequence": "GATACTTATGCGGGGTTCCCAACCAGCACCGATGTCGATTCGGAGTCACCTAGTGCAG", "binding signal": "9420 fluorescence intensity (a.u.)"}
{"sequence": "CATCTCGCCCTCGCGCGGAGACTGGTGTCCCTGTTTTGCTCGGAGTCACCTAGTGCAG", "binding signal": "8370 fluorescence intensity (a.u.)"}
{"sequence": "CTTTCCATCTCATCCTCACGTATTCCCCAGAGTGCTAAATCGGAGTCACCTAGTGCAG", "binding signal": "9280 fluorescence intensity (a.u.)"}
{"sequence": "CTCATCCATCATCGTCCTCGACTCCTCGCCGTCGCCTCCCCGGAGTCACCTAGTGCAG", "binding signal": "9390 fluorescence intensity (a.u.)"}
{"sequence": "AACCCGGTCTGTCTCTACTTGCTTTTATTCTACTTGTACACGGAGTCACCTAGTGCAG", "binding signal": "9140 fluorescence intensity (a.u.)"}
{"sequence": "ACTTCCAAGGCTGTTTGTCGTGGGTCCACATGTCAGTTACCGGAGTCACCTAGTGCAG", "binding signal": "8540 fluorescence intensity (a.u.)"}
{"sequence": "ATAAGGGATTTTCAGTTTTTGCTTGCAACGTTTGACCACTCGGAGTCACCTAGTGCAG", "binding signal": "9970 fluorescence intensity (a.u.)"}
{"sequence": "AGTCGTCTGTCCATTATCCTGTTCGAGTATAAGCTTTTTTCGGAGTCACCTAGTGCAG", "binding signal": "11700 fluorescence intensity (a.u.)"}
{"sequence": "AGGCCCACACCCTTTTCTTCACGCGTATTTGCAGTCTCGCCGGAGTCACCTAGTGCAG", "binding signal": "11900 fluorescence intensity (a.u.)"}
{"sequence": "GGGCGGCAGGGTCTATTTTTGCAATTTTGTTCGCCGATAGCGGAGTCACCTAGTGCAG", "binding signal": "11100 fluorescence intensity (a.u.)"}
{"sequence": "GGTGTTTATGTTGGTTATCTCACTTTGCCATGTCACACTTCGGAGTCACCTAGTGCAG", "binding signal": "14800 fluorescence intensity (a.u.)"}
{"sequence": "AGCTTCTTTTTCTGTGATAGCAATACTGCCTCGAGGAGGACGGAGTCACCTAGTGCAG", "binding signal": "8950 fluorescence intensity (a.u.)"}
{"sequence": "CTCGCCTTTGTTTTCCCCTTCGCGCACCAAACACCAAACACGGAGTCACCTAGTGCAG", "binding signal": "11600 fluorescence intensity (a.u.)"}
{"sequence": "CCACCACTACCATCCGTTCCACCTTCCGAACCAAACAGCGCGGAGTCACCTAGTGCAG", "binding signal": "8670 fluorescence intensity (a.u.)"}
{"sequence": "AGTTCCAAATTTTTTCTTCAAACTTCCGCTTTTCTATCACCGGAGTCACCTAGTGCAG", "binding signal": "13000 fluorescence intensity (a.u.)"}
